Measured values taken from the supplement of paper PMC8104966.
Some of the results follow. Repeats in this data set agree poorly, so a single value says little.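 U2OS cells carrying ACE2 were mixed with U2OS cells carrying full-length spike, and fusion was scored by imaging as the share of nuclei showing both cell types' fluorescent markers. A compound counts as an inhibitory hit when it is non-toxic and its fusion z-score falls below -3, meaning more than three standard deviations below the plate's DMSO wells.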

Test system: U2OS ACE2 x SARS-CoV-2 spike co-culture
Test: cell-cell fusion (fraction fused) z-score vs plate DMSO control; higher = more fusion
Details: 30 µM; 5 h; toxicity class: non-toxic, passed QC

SMILES	cell-cell fusion (z-score)
CC[C@@H](C(N)=O)N1CCCC1=O [Levetiracetam]	inactive: 2.34
COS(C)(=O)=O	inactive: 2.37
O=[N+]([O-])/C=C/c1ccc2c(c1)OCO2	active: -5.53
O.O.O.Cl.Cl.CN1CC\C(CC1)=C1/c2ccccc2C=Cc2ccccc12.CN1CC\C(CC1)=C1/c2ccccc2C=Cc2ccccc12 [Cyproheptadine hydrochloride]	inactive: 1.98
CCOC(=O)c1ncn2c1[C@@H]1CCCN1C(=O)c1cc(OC)ccc1-2	inactive: 2.23
N#CCCN.O=C(O)/C=C/C(=O)O	inactive: 2.02
COc1ccc2c(c1)OCC(Cc1ccc(O)c(OC)c1)C2=O (configuration not stated)	inactive: 1.42
CC(C)Cn1c(=O)n(C)c(=O)c2nc[nH]c21	inactive: 0.102
CCOc1nc2cccc(C(=O)OC(C)OC(=O)OC3CCCCC3)c2n1Cc1ccc(-c2ccccc2-c2nn[nH]n2)cc1 (configuration not stated) [Candesartan cilexetil]	inactive: -0.686
O=C1C=C2C=C[C@@H]3C[C@@]2(O1)[C@H]1CCCCN31	inactive: -2
CC(=O)OCC(=O)[C@@]1(O)CC[C@H]2[C@@H]3CCC4=CC(=O)C=C[C@]4(C)[C@@]3(Cl)[C@@H](Cl)C[C@@]21C	inactive: 2.92
C[C@H](O[C@H]1OCCN(Cc2n[nH]c(=O)[nH]2)[C@H]1c1ccc(F)cc1)c1cc(C(F)(F)F)cc(C(F)(F)F)c1 [Aprepitant (MK-0869)]	inactive: 2.13
CC1(C)S[C@@H]2[C@H](NC(=O)COc3ccccc3)C(=O)N2[C@H]1C(=O)[O-].[K+]	inactive: 0.208
Cn1c(=O)c2[nH]cnc2n(C)c1=O.Cn1c(=O)c2[nH]cnc2n(C)c1=O.NCCN [Aminophylline ethylenediamine]	inactive: 0.535
FC(F)(F)C(Cl)Br (configuration not stated) [Anestan]	inactive: 2.02
FC(F)(F)C(Cl)Br (configuration not stated)	inactive: 1.05
C[C@H](CCC(=O)O)[C@H]1CC[C@H]2[C@@H]3CC[C@@H]4C[C@H](O)CC[C@]4(C)[C@H]3CC[C@]12C [Lithocholic acid]	inactive: 2.19
O=C(O)[C@H](Cc1c[nH]c2ccccc12)N1C(=O)c2ccccc2C1=O	inactive: 2.23
CC(O)CN(CCN(CC(C)O)CC(C)O)CC(C)O (configuration not stated)	inactive: 0.626
CCCS(=O)(=O)Nc1ccc(F)c(C(=O)c2c[nH]c3ncc(-c4ccc(Cl)cc4)cc23)c1F [Vemurafenib]	inactive: 0.623
Cl.NNc1nncc2ccccc12 [Hydralazine hydrochloride]	inactive: 3.35
N=C(N)NN.O=S(=O)(O)O	inactive: 2.22
Cc1ccccc1N1C(=O)c2cc(S(N)(=O)=O)c(Cl)cc2NC1C (configuration not stated) [Metolazone]	inactive: 1.62
Nc1ccc(S(=O)(=O)NC(=O)c2ccccc2)cc1 [Sulfabenzamide]	inactive: 3.09

SMILES	cell-cell fusion (z-score)
CCCCCOC(=O)Nc1nc(=O)n([C@@H]2O[C@H](C)[C@@H](O)[C@@H]2O)cc1F [Capecitabine (Xeloda)]	inactive: 1.02
C=CCSCC1Nc2cc(Cl)c(S(N)(=O)=O)cc2S(=O)(=O)N1 (configuration not stated)	inactive: 3.79
COc1ccc(C2=NC(c3ccc(Cl)cc3)C(c3ccc(Cl)cc3)N2C(=O)N2CCNC(=O)C2)c(OC(C)C)c1 (configuration not stated) [Nutlin-3]	active: -3.1
NS(=O)(=O)c1cc(C(=O)O)c(NCc2ccco2)cc1Cl [Furosemide]	inactive: 3.34
Oc1c(Br)cc(Br)c2cccnc12	inactive: 1.05
OC[C@H]1OC(n2cnc3c(N[C@H]4CCC[C@@H]4O)ncnc32)[C@H](O)[C@@H]1O (some centres not stated)	inactive: 1.16
CC(C)CC(NC(=O)CCN)C(=O)O (racemic)	inactive: 2.25
CC(C)(O)c1ccccc1CC[C@@H](SCC1(CC(=O)[O-])CC1)c1cccc(/C=C/c2ccc3ccc(Cl)cc3n2)c1.[Na+] [Montelukast sodium]	inactive: 0.902
c1cc(CN2CCCNCCNCCCNCC2)ccc1CN1CCCNCCNCCCNCC1 [Plerixafor]	inactive: 1.03
CCn1cc(C(=O)O)c(=O)c2cc(F)c(N3CCNC(C)C3)c(F)c21.NCCO (configuration not stated)	inactive: 0.43
CCCC(=O)Nc1ccc(OCC(O)CNC(C)C)c(C(C)=O)c1.Cl (configuration not stated) [Acebutolol hydrochloride]	inactive: -0.0315
CCCCC(O)c1ccccc1 (configuration not stated) [Fenipentol]	inactive: 2.02
O=C(O)c1cc(/N=N/c2ccc(S(=O)(=O)Nc3ccccn3)cc2)ccc1O	inactive: -0.146
CC1(C)C=Cc2c(c3c(c4c(=O)c(-c5ccc(O)c(O)c5)coc24)OC(C)(C)CC3)O1	active: -5.31
CCN1CCCC(OC(=O)C(c2ccccc2)c2ccccc2)C1.Cl (configuration not stated)	inactive: 1.58
CCCCc1ncc(/C=C(\Cc2cccs2)C(=O)O)n1Cc1ccc(C(=O)O)cc1.CS(=O)(=O)O [Eprosartan Mesylate]	inactive: 2.71
O=C(O)CCCCC1CCSS1 (configuration not stated)	inactive: 2.39
CO[C@H]1/C=C/O[C@@]2(C)Oc3c(C)c(O)c4c(O)c(c5c(nc6cc(C)ccn65)c4c3C2=O)NC(=O)/C(C)=C\C=C\[C@H](C)[C@H](O)[C@@H](C)C(O)[C@@H](C)[C@H](OC(C)=O)[C@@H]1C (some centres not stated)	inactive: 3.97
CO[C@]12C[C@@H](COC(=O)c3cncc(Br)c3)CN(C)[C@@H]1Cc1cn(C)c3cccc2c13	inactive: 2.5
CCCCCCCCCCCCCCCC(=O)OCC(O)CO (configuration not stated)	inactive: 2.62
CC1(C)CC[C@]2(C(=O)O)CC[C@]3(C)C(=CCC4[C@@]5(C)CC[C@H](O)[C@@](C)(CO)C5CC[C@]43C)C2C1 (some centres not stated)	inactive: 2.42
Cl.O=c1n(CCCN2CCN(c3cccc(Cl)c3)CC2)nc2ccccn12 [Trazodone hydrochloride]	inactive: 3.79
CC(C)[C@@H]1CC[C@@H](C)C[C@@H]1P(=O)(c1ccccc1)c1ccccc1	inactive: 2.51
CC(=O)NBr [N-Bromoacetamide]	inactive: 1.99

4 entries from above in another layout:

| SMILES | cell-cell fusion (z-score) |
| --- | --- |
| CCCCc1ncc(/C=C(\Cc2cccs2)C(=O)O)n1Cc1ccc(C(=O)O)cc1.CS(=O)(=O)O [Eprosartan Mesylate] | inactive: 2.71 |
| O=C(O)CCCCC1CCSS1 (configuration not stated) | inactive: 2.39 |
| CO[C@H]1/C=C/O[C@@]2(C)Oc3c(C)c(O)c4c(O)c(c5c(nc6cc(C)ccn65)c4c3C2=O)NC(=O)/C(C)=C\C=C\[C@H](C)[C@H](O)[C@@H](C)C(O)[C@@H](C)[C@H](OC(C)=O)[C@@H]1C (some centres not stated) | inactive: 3.97 |
| CO[C@]12C[C@@H](COC(=O)c3cncc(Br)c3)CN(C)[C@@H]1Cc1cn(C)c3cccc2c13 | inactive: 2.5 |

Further results

SMILES	cell-cell fusion (z-score)
CN1CCCC1CCOC(C)(c1ccccc1)c1ccc(Cl)cc1.O=C(O)/C=C/C(=O)O (configuration not stated) [Clemastine fumarate]	inactive: 2.25
Cn1c(=O)c2[nH]cnc2n(C)c1=O.O [Theophylline monohydrate]	inactive: 1.69
Cl.Clc1ccc(Cn2c(CN3CCCC3)nc3ccccc32)cc1 [Clemizole hydrochloride]	inactive: 1.55
CNC(=O)c1ccc(N2C(=S)N(c3cnc(C#N)c(C(F)(F)F)c3)C(=O)C23CCC3)cc1F [Apalutamide]	inactive: 1.85
O=c1[nH]c(=O)n([C@H]2C[C@H](O)[C@@H](CO)O2)cc1C(F)(F)F [Trifluridine]	inactive: 4.06
O=C1O[C@@H](CO)[C@H](O)[C@@H](O)[C@@H]1O	inactive: 2.74
C[C@@H]1CCO[C@H]2Cn3cc(C(=O)NCc4ccc(F)cc4F)c(=O)c([O-])c3C(=O)N12.[Na+] [Dolutegravir sodium]	inactive: 2.43
CCC(=O)c1ccc(O)cc1	inactive: 2.48
O=c1cc(-c2ccccc2)oc2ccccc12	inactive: 1.34
Nc1cc(-c2ccncc2)c[nH]c1=O [Amrinone]	inactive: 2.92
CNC(=O)c1ccccc1Sc1ccc2c(/C=C/c3ccccn3)n[nH]c2c1 [Axitinib]	inactive: 1.22
CN(C)C/C=C(/c1ccc(Br)cc1)c1cccnc1.Cl.Cl [Zimelidine dihydrochloride]	inactive: 0.163
CC[C@H]1OC(=O)[C@H](C)[C@@H](O[C@H]2C[C@@](C)(OC)[C@@H](O)[C@H](C)O2)[C@H](C)[C@@H](O[C@@H]2O[C@H](C)C[C@H](N(C)C)[C@H]2O)[C@](C)(O)C[C@@H](C)CN(C)[C@H](C)[C@@H](O)[C@]1(C)O [Azithromycin]	inactive: -0.373
CC[C@H]1OC(=O)[C@H](C)[C@@H](O[C@H]2C[C@@](C)(OC)[C@@H](O)[C@H](C)O2)[C@H](C)[C@@H](O[C@@H]2O[C@H](C)C[C@H](N(C)C)[C@H]2O)[C@](C)(O)C[C@@H](C)CN(C)[C@H](C)[C@@H](O)[C@]1(C)O	inactive: 3.52
CC(N)CCCC(C)(C)O.Cl (configuration not stated)	inactive: 0.618
O=C(O)c1cccc(O)c1O	inactive: 1.52
COc1ccccc1N1CCNCC1.Cl [1-(2-Methoxyphenyl)piperazine hydrochloride]	inactive: 2.19
NC(=O)CC[C@H](N)C(=O)O [L-Glutamine]	inactive: 3.62
O=C(CCCN1CC=C(n2c(=O)[nH]c3ccccc32)CC1)c1ccc(F)cc1 [Droperidol]	inactive: 3.05
O=C(O)Cc1ccc(-c2ccccc2)cc1	inactive: 2.56
COc1ccc(C(=O)c2ccccc2)c(O)c1	inactive: -0.369
[Cl-].c1ccc2c(c1)[I+]c1ccccc1-2 [Diphenyleneiodonium chloride]	inactive: 2.6
CC(C)CC(N)=O	inactive: 3.14
CO[C@H]1/C=C/O[C@@]2(C)Oc3c(C)c(O)c4c(O)c(c5c(nc6cc(C)ccn65)c4c3C2=O)NC(=O)/C(C)=C\C=C\[C@H](C)[C@H](O)[C@@H](C)[C@@H](O)[C@@H](C)[C@H](OC(C)=O)[C@@H]1C [Rifaximin]	inactive: 5.72
